System: HUVECs
Test: Neutrophil TEM restoration studies with PKC inhibitors
Type: cell-based, human
Settings: HUVEC; inhibitor pretreatment (Go-6983, Go-6976: 1, 10, 100 nM), then 100 nM Bryostatin-1
Experimental: HUVECs were pretreated with Go-6983 (1, 10, 100 nM), or Go-6976 (1, 10, 100 nM) for 30 minutes, then spiked with 100 nM Bryostatin-1 for 1 hour. HUVECs previously nucleofected with PKC-δ, -ε, or control siRNA were just treated in Bryostatin-1 for 1 hour. HUVECs were washed three times and placed in a new plate containing either 500 μL 100 nM LTB4, or HBSS alone for control. Neutrophils were allowed to migrate for 3 h at 37° C. Migration was stopped by removing the inserts and migration was measured using the MPO assay.
Neutrophil migration was measured using myeloperoxidase (MPO) analysis. Cell culture inserts were first removed and plates were spun at 1,500 RPM for 5 min. The supernatant was removed, and MPO activity was measured using TMB/peroxide as chromogen. The reaction was stopped with sulfuric acid and absorbance was read at 450 nm using a microplate reader. All experiments were performed n=6. Data was expressed as “% neutrophil migration”, which allowed cumulative statistical analysis to be done and account for unpreventable batch-to-batch variations.

## CN[C@@H]1C[C@H]2O[C@@](C)([C@@H]1OC)n1c3ccccc3c3c4c(c5c6ccccc6n2c5c31)C(=O)NC4 [staurosporine]
  restoration of PMN TEM in response to LTB4 by PKC inhibitors (reversal of Bryostatin-1 protection): did not restore PMN TEM
